This is one part of the list.
Experiments:
Test in all cases: log2 fold change, soluble protein after heating vs DMSO (PISA); higher = thermal stabilisation; K562 cells, 10 uM, 30 min; active = over 0.2 and 3.5 SD of the protein, either way, in both replicates (recomputed)
[1] = compound: C1=CC=C(C=C1)[C@H](COC2=CC3=C(C=C2)NC(=O)N3)NC(=O)C4=CC=CN(C4=O)CC5=CC(=C(C=C5)F)F
How it was run: (§1)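 K562 cells (2×10^6 cells/mL) were treated with 10 μM compound for 30 min, and aliquots were heated for 3 min over 48°C-58°C. Pooled aliquots were extracted in PBS with 0.5% NP-40 at 4°C, and the supernatant after 21,000xg for 90 min was measured by TMTpro 16plex LC-MS/MS with channel sums equalised. Reported thermal stability, relative to control samples and from duplicates, is a log2 fold change.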

Amino acid sequences for entries named in this document (tags omitted). A change or cut given only in a name is not applied to a line headed by its entry.
UniProt Q9GZT9: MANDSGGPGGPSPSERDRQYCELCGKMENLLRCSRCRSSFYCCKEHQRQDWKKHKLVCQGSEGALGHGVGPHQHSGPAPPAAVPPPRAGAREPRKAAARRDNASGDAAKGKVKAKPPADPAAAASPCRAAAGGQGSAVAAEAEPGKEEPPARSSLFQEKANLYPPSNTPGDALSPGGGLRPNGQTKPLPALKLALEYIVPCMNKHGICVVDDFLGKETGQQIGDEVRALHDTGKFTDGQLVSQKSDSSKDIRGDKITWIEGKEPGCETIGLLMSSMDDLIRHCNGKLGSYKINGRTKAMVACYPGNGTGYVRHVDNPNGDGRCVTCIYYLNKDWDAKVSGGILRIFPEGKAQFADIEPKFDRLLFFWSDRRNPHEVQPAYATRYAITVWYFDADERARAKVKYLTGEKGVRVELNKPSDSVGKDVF
UniProt Q13542: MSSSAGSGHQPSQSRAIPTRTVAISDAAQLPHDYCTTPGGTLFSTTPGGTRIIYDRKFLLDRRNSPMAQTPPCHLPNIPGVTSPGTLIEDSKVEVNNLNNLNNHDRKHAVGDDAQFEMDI
UniProt P38919, whole entry, looked up: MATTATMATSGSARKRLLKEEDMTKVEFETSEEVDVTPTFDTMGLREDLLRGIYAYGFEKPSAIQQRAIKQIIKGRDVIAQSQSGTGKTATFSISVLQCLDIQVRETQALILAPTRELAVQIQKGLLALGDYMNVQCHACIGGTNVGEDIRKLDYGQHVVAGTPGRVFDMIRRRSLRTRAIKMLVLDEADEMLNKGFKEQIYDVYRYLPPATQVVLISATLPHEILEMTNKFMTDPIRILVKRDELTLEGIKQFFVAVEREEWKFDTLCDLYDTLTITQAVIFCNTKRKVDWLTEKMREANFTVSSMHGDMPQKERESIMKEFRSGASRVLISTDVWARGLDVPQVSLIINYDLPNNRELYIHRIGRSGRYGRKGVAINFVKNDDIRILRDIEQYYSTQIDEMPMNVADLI
UniProt Q9H5J4: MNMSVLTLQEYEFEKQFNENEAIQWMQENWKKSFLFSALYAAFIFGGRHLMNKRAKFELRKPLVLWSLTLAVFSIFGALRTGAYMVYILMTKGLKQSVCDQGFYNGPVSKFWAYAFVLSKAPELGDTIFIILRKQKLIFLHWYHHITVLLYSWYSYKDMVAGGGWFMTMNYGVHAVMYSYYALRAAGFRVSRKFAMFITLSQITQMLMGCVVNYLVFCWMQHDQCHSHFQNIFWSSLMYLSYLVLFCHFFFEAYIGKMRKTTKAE
UniProt P11171, whole entry, looked up: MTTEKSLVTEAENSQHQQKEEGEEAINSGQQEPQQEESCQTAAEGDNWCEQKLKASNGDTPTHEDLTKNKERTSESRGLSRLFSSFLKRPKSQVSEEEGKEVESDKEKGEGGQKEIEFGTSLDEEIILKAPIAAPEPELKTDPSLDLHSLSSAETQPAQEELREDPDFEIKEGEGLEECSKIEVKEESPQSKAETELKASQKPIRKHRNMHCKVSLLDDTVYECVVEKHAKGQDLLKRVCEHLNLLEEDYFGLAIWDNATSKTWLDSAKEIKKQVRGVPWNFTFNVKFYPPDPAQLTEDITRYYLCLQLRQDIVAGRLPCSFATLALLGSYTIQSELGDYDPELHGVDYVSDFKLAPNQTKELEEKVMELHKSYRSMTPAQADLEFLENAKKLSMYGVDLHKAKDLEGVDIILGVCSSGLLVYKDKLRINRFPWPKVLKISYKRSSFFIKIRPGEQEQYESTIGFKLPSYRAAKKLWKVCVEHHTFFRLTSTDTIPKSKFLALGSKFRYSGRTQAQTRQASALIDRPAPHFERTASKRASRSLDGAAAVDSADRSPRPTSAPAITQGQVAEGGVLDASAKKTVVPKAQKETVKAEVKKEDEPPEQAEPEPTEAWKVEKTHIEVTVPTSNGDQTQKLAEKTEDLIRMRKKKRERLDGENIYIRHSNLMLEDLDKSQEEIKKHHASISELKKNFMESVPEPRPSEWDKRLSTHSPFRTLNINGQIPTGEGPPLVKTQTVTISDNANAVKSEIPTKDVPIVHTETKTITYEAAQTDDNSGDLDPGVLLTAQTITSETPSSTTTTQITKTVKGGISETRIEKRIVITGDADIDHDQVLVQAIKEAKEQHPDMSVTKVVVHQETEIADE
UniProt Q92979: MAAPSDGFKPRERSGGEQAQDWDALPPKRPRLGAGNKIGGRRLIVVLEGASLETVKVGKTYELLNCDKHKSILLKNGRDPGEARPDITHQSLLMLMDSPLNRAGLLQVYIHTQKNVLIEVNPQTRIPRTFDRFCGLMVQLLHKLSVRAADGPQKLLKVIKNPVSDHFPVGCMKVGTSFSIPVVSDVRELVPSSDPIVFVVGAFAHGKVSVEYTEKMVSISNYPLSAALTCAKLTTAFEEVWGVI
UniProt O60739, whole entry, looked up: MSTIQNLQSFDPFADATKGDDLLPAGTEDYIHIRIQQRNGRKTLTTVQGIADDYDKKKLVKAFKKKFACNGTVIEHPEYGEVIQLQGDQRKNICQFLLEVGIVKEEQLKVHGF
UniProt Q9NRA8: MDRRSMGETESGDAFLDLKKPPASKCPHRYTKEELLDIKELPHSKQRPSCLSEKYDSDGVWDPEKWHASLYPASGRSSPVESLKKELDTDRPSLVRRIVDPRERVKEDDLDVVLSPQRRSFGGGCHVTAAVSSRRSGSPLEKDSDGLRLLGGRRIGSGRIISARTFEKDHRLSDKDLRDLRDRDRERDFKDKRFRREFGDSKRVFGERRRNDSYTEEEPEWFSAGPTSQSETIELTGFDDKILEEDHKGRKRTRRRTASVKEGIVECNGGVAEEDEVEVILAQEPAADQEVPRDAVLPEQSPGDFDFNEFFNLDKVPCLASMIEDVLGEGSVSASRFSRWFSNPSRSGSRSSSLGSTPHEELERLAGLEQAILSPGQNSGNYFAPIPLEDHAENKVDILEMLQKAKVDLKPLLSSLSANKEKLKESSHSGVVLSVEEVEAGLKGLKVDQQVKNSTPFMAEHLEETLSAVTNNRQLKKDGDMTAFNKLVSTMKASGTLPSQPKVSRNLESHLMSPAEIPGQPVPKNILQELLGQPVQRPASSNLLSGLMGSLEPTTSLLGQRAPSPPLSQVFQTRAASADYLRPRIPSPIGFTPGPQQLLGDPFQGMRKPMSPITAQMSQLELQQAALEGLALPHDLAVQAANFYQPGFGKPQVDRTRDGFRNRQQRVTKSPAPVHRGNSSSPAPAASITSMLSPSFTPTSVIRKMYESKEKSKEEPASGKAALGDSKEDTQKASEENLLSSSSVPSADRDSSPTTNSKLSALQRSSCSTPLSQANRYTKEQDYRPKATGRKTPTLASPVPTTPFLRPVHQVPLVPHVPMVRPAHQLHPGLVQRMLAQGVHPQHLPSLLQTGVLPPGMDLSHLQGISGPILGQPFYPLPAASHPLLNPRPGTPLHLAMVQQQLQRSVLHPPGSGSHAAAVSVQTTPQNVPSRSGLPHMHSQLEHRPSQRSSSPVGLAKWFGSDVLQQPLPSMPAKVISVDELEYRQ
UniProt Q8N9N8: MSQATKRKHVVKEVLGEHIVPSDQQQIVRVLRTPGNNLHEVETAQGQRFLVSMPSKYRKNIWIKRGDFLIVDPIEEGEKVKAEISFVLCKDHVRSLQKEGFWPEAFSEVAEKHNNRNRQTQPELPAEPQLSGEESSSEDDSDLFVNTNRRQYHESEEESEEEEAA
UniProt P47813, whole entry, looked up: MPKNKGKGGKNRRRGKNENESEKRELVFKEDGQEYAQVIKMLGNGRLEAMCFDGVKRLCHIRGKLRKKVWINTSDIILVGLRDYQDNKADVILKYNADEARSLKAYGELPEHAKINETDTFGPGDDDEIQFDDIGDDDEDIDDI
UniProt Q8N3D4: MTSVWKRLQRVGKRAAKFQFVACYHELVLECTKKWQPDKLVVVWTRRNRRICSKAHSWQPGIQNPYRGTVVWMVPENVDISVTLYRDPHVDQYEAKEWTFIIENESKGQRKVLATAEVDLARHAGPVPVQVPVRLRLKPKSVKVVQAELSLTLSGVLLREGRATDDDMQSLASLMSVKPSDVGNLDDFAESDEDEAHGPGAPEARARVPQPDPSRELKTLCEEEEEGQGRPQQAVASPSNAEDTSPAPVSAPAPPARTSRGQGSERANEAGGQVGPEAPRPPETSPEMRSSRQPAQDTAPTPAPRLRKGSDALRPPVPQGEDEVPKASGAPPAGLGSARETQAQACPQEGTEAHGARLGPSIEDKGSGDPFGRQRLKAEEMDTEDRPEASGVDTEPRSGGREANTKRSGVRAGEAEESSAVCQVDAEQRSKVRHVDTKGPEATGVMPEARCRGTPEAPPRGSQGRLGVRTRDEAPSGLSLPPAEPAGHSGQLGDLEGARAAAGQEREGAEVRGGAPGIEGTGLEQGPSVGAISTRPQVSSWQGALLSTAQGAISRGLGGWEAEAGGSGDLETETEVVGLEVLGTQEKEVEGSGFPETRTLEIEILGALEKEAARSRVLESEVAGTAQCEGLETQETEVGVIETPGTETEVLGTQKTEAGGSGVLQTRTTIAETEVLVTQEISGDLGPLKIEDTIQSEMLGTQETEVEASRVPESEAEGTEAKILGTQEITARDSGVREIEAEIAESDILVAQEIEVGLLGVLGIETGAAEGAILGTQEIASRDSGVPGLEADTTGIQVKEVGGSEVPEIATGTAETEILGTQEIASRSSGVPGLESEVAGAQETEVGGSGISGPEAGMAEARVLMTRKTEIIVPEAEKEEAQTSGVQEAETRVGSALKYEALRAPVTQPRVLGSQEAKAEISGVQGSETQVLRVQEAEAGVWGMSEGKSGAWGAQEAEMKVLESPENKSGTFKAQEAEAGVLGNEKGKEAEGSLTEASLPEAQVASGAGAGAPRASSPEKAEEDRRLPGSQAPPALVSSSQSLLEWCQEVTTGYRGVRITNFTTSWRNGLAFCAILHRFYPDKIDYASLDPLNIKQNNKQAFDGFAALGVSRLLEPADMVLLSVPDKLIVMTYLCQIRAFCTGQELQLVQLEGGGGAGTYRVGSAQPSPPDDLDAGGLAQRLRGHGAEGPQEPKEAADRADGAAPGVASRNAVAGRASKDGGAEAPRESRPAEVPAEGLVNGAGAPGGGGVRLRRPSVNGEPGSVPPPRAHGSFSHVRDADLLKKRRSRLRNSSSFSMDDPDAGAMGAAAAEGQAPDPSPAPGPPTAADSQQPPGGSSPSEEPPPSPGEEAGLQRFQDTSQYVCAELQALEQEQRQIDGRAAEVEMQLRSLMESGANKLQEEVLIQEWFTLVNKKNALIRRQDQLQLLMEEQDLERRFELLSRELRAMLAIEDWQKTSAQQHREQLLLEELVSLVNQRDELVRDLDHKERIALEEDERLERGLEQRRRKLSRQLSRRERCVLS
UniProt Q8N766: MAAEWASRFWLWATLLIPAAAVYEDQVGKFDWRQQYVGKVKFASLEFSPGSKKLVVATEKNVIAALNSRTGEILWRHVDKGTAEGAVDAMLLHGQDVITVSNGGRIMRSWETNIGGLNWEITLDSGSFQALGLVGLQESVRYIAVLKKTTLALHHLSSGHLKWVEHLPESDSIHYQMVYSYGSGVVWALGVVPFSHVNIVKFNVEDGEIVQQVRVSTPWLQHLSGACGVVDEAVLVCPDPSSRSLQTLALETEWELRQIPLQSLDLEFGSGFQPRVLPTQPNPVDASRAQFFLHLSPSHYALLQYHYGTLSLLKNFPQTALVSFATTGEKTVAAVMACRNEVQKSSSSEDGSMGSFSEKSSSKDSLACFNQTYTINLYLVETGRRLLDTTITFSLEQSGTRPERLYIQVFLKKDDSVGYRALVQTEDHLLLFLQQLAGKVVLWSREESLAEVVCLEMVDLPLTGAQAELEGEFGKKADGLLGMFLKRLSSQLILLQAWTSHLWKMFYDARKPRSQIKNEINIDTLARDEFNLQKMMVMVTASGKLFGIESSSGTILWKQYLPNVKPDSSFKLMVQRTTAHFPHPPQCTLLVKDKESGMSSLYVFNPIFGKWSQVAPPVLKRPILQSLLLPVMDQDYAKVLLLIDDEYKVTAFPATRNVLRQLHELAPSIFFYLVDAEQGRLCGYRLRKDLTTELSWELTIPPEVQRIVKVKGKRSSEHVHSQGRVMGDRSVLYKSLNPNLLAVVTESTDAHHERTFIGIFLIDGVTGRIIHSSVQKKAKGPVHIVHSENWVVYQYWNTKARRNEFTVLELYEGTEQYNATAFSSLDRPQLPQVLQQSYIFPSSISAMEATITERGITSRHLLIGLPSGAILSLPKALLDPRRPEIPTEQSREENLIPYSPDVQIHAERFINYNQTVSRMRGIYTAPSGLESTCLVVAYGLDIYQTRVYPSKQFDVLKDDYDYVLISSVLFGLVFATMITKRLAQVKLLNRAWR
UniProt O43324: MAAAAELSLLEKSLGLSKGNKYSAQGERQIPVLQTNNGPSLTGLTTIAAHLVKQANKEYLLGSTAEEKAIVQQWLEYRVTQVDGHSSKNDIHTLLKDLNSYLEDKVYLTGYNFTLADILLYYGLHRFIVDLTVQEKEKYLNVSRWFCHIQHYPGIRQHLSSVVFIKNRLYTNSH
UniProt O43768: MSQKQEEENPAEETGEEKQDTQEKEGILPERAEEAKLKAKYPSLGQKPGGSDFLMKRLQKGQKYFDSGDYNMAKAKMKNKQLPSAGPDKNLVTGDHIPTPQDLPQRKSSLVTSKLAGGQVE

[2] = compound: CC1=C(SC2=C1C(=N[C@H](C3=NN=C(N32)C)CC(=O)N)C4=CC=C(C=C4)Cl)C
How it was run: as §1

[3] = compound: CC1=C2C(=CC=C1)N=C(N(C2=O)C3=CC=CC=C3C)CN4C=NC5=C(N=CN=C54)N
How it was run: as §1

[4] = compound: Cc1sc2c(c1C)C(c1ccc(Cl)cc1)=N[C@@H](CC(=O)OC(C)(C)C)c1nnc(C)n1-2
How it was run: as §1

[5] = compound: c1ccc([C@@H]2C[C@H]2NC2CCNCC2)cc1
How it was run: as §1

Measured: log2 fold change

EGLN1 (UniProt Q9GZT9)
inactive: [1] 0.055 | [2] 0.06 | [3] 0.013 | [4] 0.008 | [5] 0.019

EFHD2 (UniProt Q96C19)
inactive: [1] -0.006 | [2] 0.041 | [3] 0.051 | [4] -0.054 | [5] -0.039

EEF1D isoform 2 (UniProt P29692)
inactive: [1] -0.031 | [2] 0.003 | [3] 0.073 | [4] 0.012 | [5] -0.011

EIF4EBP2 (UniProt Q13542)
inactive: [1] -0.022 | [2] 0.159 | [3] -0.077 | [4] -0.14 | [5] 0.081

ELOB (UniProt Q15370)
inactive: [1] -0.014 | [2] 0.156 | [3] 0.066 | [4] -0.116 | [5] 0.006

ELP4 isoform 3 (UniProt Q96EB1)
inactive: [1] 0.02 | [2] 0.002 | [3] 0.013 | [4] 0.004 | [5] 0.022

EEF1AKNMT (UniProt Q8N6R0)
inactive: [1] -0.146 | [2] 0.049 | [3] 0.121 | [4] 0.028 | [5] -0.063

ELP1 (UniProt O95163)
inactive: [1] 0.013 | [2] 0.043 | [3] 0.035 | [4] -0.023 | [5] 0

EIF3E (UniProt P60228)
inactive: [1] -0.084 | [2] 0.017 | [3] -0.005 | [4] 0.104 | [5] -0.005

ENO1 isoform 2 (UniProt P06733)
inactive: [1] 0.174 | [2] 0.226 | [3] 0.118 | [4] 0.008 | [5] -0.091

ENPP2 isoform 2 (UniProt Q13822)
inactive: [1] 0.05

EPB41, A0A2R8Y6D0
inactive: [1] 0.104 | [2] 0.058 | [3] -0.003 | [4] 0.035 | [5] 0.118

EGFL7 (UniProt Q9UHF1)
inactive: [1] 0.067

EIF3A (UniProt Q14152)
inactive: [1] -0.058 | [2] -0.059 | [3] 0.046 | [4] 0.09 | [5] -0.063

EIF4E2 (UniProt O60573)
inactive: [1] -0.043 | [2] -0.01 | [3] -0.007 | [4] -0.06 | [5] 0.055

EIF4A3 (UniProt P38919)
inactive: [1] -0.008 | [2] 0.083 | [3] 0.036 | [4] 0.02 | [5] -0.022

EIF3M (UniProt Q7L2H7)
inactive: [1] -0.023 | [2] -0.024 | [3] -0.002 | [4] 0.041 | [5] -0.003

EMC2 (UniProt Q15006)
inactive: [1] -0.003 | [2] 0.033 | [3] 0.015 | [4] -0.077 | [5] 0.004

ELOVL6 (UniProt Q9H5J4)
inactive: [1] -0.005 | [2] 0.024 | [3] 0.054 | [4] -0.134 | [5] -0.028

EED, A0A5F9ZI63
inactive: [1] 0.002 | [2] 0.011 | [3] 0.03 | [4] -0.029 | [5] -0.006

EIF4G1 isoform 8 (UniProt Q04637)
inactive: [1] -0.074 | [2] -0.016 | [3] -0.036 | [4] 0.135 | [5] -0.002

EPB41 (UniProt P11171)
inactive: [1] -0.012 | [2] 0.036 | [3] 0.003 | [4] 0.009 | [5] -0.005

EHD4 (UniProt Q9H223)
inactive: [1] -0.01 | [2] 0.052 | [3] 0.037 | [4] -0.05 | [5] 0.007

EIF2S1 (UniProt P05198)
inactive: [1] -0.003 | [2] -0.021 | [3] -0.025 | [4] 0.051 | [5] 0.011

EEFSEC (UniProt P57772)
inactive: [1] 0.016 | [2] 0.007 | [3] 0.082 | [4] 0.185 | [5] -0.028

EEF1AKMT2 (UniProt Q5JPI9)
inactive: [1] 0.196

EMG1 (UniProt Q92979)
inactive: [1] 0.023 | [2] -0.066 | [3] -0.08 | [4] 0.063 | [5] 0.024

EIF1B (UniProt O60739)
inactive: [1] -0.054

EIF4A2 isoform 2 (UniProt Q14240)
inactive: [1] -0.064 | [2] 0.034 | [3] 0.041 | [4] 0.011 | [5] -0.021

EGR1 (UniProt P18146)
inactive: [1] 0.034 | [2] 0.241 | [3] -0.097 | [4] 0.705 | [5] 0.07

EIF4ENIF1 isoform 3 (UniProt Q9NRA8)
inactive: [1] -0.077 | [2] 0.018 | [3] -0.041 | [4] 0.029 | [5] -0.064

EIF4E isoform 2 (UniProt P06730)
inactive: [1] 0.029 | [2] -0.026 | [3] -0.002 | [4] -0.144 | [5] 0.009

EIF1AD (UniProt Q8N9N8)
inactive: [1] 0.013 | [2] 0.067 | [3] 0.068 | [4] 0.013 | [5] -0.034

ENO2 (UniProt U3KQQ1)
inactive: [1] 0.015

EIF2B3 (UniProt Q9NR50)
inactive: [1] 0.015 | [2] 0.003 | [3] -0.039 | [4] 0.041 | [5] -0.021

Reprinted at random: 4 entries already listed, in no set order.
ENPP2 isoform 2 (UniProt Q13822)
inactive: [1] 0.05

EEF1D isoform 2 (UniProt P29692)
inactive: [1] -0.031 | [2] 0.003 | [3] 0.073 | [4] 0.012 | [5] -0.011

EIF4EBP2 (UniProt Q13542)
inactive: [1] -0.022 | [2] 0.159 | [3] -0.077 | [4] -0.14 | [5] 0.081

EIF3A (UniProt Q14152)
inactive: [1] -0.058 | [2] -0.059 | [3] 0.046 | [4] 0.09 | [5] -0.063

Further entries

EEF1AKMT4-ECE2 (UniProt P0DPD8)
inactive: [1] 0.197

EIF3G (UniProt K7ER90)
inactive: [1] 0.034 | [2] 0.026 | [3] 0.137 | [4] -0.117 | [5] 0.097

ELAC2 (UniProt Q9BQ52)
inactive: [1] -0.003 | [2] 0.025 | [3] 0.01 | [4] -0.025 | [5] 0.019

ELMOD2 (UniProt Q8IZ81)
inactive: [1] 0.037 | [2] -0.003 | [3] 0.051 | [4] -0.065 | [5] -0.018

EIF2AK2 (UniProt P19525)
inactive: [1] 0.288 | [2] -0.392 | [3] -0.05 | [4] 0.278 | [5] -0.01

EIF2S2 (UniProt P20042)
inactive: [1] 0.018 | [2] -0.101 | [3] -0.119 | [4] 0.067 | [5] 0.043

EI24 (UniProt O14681)
inactive: [1] -0.009 | [2] 0.006 | [3] -0.039 | [4] -0.057 | [5] 0.003

EIF1AX (UniProt P47813)
inactive: [1] -0.046 | [2] -0.036 | [3] -0.014 | [4] 0.003 | [5] 0.008

EHD2 (UniProt Q9NZN4)
inactive: [1] -0.018 | [2] 0.049 | [3] 0.022 | [4] -0.019 | [5] -0.049

EEF1G isoform 2 (UniProt P26641)
inactive: [1] -0.068 | [2] 0.005 | [3] -0.049 | [4] -0.001 | [5] -0.006

EML5 isoform 5 (UniProt Q05BV3)
inactive: [1] 0.014 | [2] -0.052 | [3] 0.049 | [4] 0.051 | [5] -0.033

ENOPH1 (UniProt Q9UHY7)
inactive: [1] -0.083 | [2] 0.011 | [3] 0.156 | [4] 0.02 | [5] -0.107

EHBP1L1 (UniProt Q8N3D4)
inactive: [1] -0.016 | [2] 0.065 | [3] 0.052 | [4] -0.022 | [5] -0.051

EMC1 (UniProt Q8N766)
inactive: [1] 0.015 | [2] 0.01 | [3] -0.033 | [4] -0.034 | [5] -0.003

EEF1E1 (UniProt O43324)
inactive: [1] -0.003 | [2] 0.015 | [3] 0.026 | [4] 0.018 | [5] -0.108

EIF2B4 (UniProt Q9UI10)
inactive: [1] 0.069 | [2] 0.046 | [3] 0.039 | [4] 0.009 | [5] -0.013

EIF3D (UniProt O15371)
inactive: [1] -0.053 | [2] -0.036 | [3] 0.036 | [4] 0.094 | [5] 0.008

ELP5 isoform 4 (UniProt Q8TE02)
inactive: [1] 0.041 | [2] -0.028 | [3] 0.043 | [4] -0.012 | [5] 0.025

ENSA isoform 3 (UniProt O43768)
inactive: [1] 0 | [2] -0.01 | [3] -0.032 | [4] 0.001 | [5] 0.011

ENO1 (UniProt P06733)
inactive: [1] -0.024 | [2] 0.011 | [3] 0.013 | [4] 0.007 | [5] 0.002

EML3 isoform 2 (UniProt Q32P44)
inactive: [1] -0.086 | [2] -0.016 | [3] 0.04 | [4] 0.038 | [5] 0.011

Reference: the supplement of paper PMC10849652
